± gives the uncertainty stated by the source. Many of these values have a large error.
Assay: self-splicing fitness, log relative to wild type (ln ratio); higher = more splicing; Tetrahymena group I intron in knt gene, E. coli kanamycin selection, DiMSum; sequences stand for … in CUCUCU…GGAGGGAAAAGUUAUCAGGCAUGCACCUGGUAGCUAGUCUUUAAACCAAUAGAUUGCAUCGGUUUAAAAGGCAAGACCGUCAAAUUGCGGGAAAGGGGUCAACAGCCGUUCAGUACCAAGUCUCAGGGGAAACUUUGAGAUGGCCUUGCAAAGGGUAUGGUAAUAAGCUGACGGACAUGGUCCUAACCACGCAGCCAAGUCCUAAGUCAACAGAUCUUCUGUUGAUAUGGAUGCAGUUCACAGACUAAAUGUCGGUCGGGGAAGAUGUAUUCUUCUCAUAAGAUAUAGUCGGACCUCUCCUUAAUGGGAGCUAGCGGAUGAAGUGAUGCAACACUGGAGCCGCUGGGAACUAAUUUGUAUGCGAAAGUAUAUUGAUUAGUUUUGGAGUACUCGUGGUCG
Procedure, shortened: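 A randomised library covering all eight P1ex-region intron nucleotides was built with the intron in the knt kanamycin-resistance gene on pET-22b(+) and held in E. coli BL21(DE3). Cells were grown overnight at 37°C or 30°C on LB agar, with or without 25 μg/mL kanamycin, plus 100 μg/mL carbenicillin, 50 μM IPTG and 0.2% rhamnose, and pooled colonies were amplicon-sequenced on an Illumina HiSeq 2500. DiMSum fitness is the error-weighted combination of wild-type-normalised replicate fold changes, kanamycin versus none.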

Row | Sequence | self-splicing fitness (ln) (37 °C) | self-splicing fitness (ln) (30 °C)
1 | ACGGAGCAAUAUUACGCUCC | -1.28 ± 0.37 | 
2 | CCGGAGCAAUAUUACGCUGC |  | -2.87 ± 0.78
3 | GGCGAGCAAUAUUACGGUCC |  | -2.64 ± 0.52
4 | GGGGAGCAAUAUUACGCAGU |  | -4.26 ± 1
5 | UUAUAGCAAUAUUACGGGGC | -2.54 ± 0.54 | 
6 | UACGAGCAAUAUUACGCGGA | -1.77 ± 0.67 | -2.66 ± 0.76
7 | CGUAAGCAAUAUUACGGCUC |  | -2.57 ± 0.58
8 | AGUUAGCAAUAUUACGAUUA |  | -1.12 ± 0.84
9 | UUCUAGCAAUAUUACGCCAG |  | -0.868 ± 1.4
10 | CCUGAGCAAUAUUACGCUGG | -1.97 ± 0.51 | -4.32 ± 0.73
11 | UGACAGCAAUAUUACGGAUC | -2.21 ± 0.16 | -4.78 ± 0.32
12 | GAUGAGCAAUAUUACGAGAA | -1.47 ± 0.74 | -2.65 ± 1.1
13 | CGGCAGCAAUAUUACGCUAC | -2.08 ± 0.79 | -3.67 ± 0.74
14 | GAUGAGCAAUAUUACGCCCC | -1.13 ± 1.2 | -0.716 ± 0.71
15 | UUCUAGCAAUAUUACGCUAC | -2.88 ± 0.75 | 
16 | UGGCAGCAAUAUUACGCGUC | -2.21 ± 0.3 | -3.54 ± 0.37
17 | UCGAAGCAAUAUUACGCUUG |  | -4.28 ± 0.59
18 | CCGGAGCAAUAUUACGGAAU | -2.96 ± 0.25 | -2.95 ± 0.26
19 | AUCAAGCAAUAUUACGGUGG | -2.63 ± 0.2 | -3.54 ± 0.19
20 | GUAGAGCAAUAUUACGAAUA | -2.05 ± 0.66 | -3.47 ± 0.61
21 | GUCAAGCAAUAUUACGCGAC | -3.16 ± 1 | 

Row | Sequence | self-splicing fitness (ln) (37 °C) | self-splicing fitness (ln) (30 °C)
22 | GUGGAGCAAUAUUACGUUCC | -1.2 ± 0.75 | 
23 | CCUUAGCAAUAUUACGAGUC |  | -3.9 ± 1
24 | UAAUAGCAAUAUUACGUAUU | -1.95 ± 0.16 | -4.09 ± 0.28
25 | AUUAAGCAAUAUUACGGCUG | -0.233 ± 0.1 | -0.405 ± 0.083
26 | UUUUAGCAAUAUUACGCAAC |  | -0.628 ± 0.87
27 | GAUGAGCAAUAUUACGCGGC |  | -3.01 ± 0.59
28 | AGAGAGCAAUAUUACGACUG | -3.43 ± 1 | 
29 | UUGUAGCAAUAUUACGAAGG |  | -3.83 ± 0.6
30 | AGAGAGCAAUAUUACGCGGC | -2.65 ± 0.62 | 
31 | CAUAAGCAAUAUUACGAAGC | -1.39 ± 0.87 | 
32 | CAGGAGCAAUAUUACGGACC | -3.34 ± 0.74 | 
33 | CAAGAGCAAUAUUACGAUCU | -1.79 ± 0.31 | -5.17 ± 0.71
34 | GGGUAGCAAUAUUACGCGGC | -1.68 ± 0.55 | 
35 | GCGAAGCAAUAUUACGGGCC |  | -2.53 ± 0.54
36 | CAAAAGCAAUAUUACGCCAU | -2.61 ± 0.23 | -3.4 ± 0.2
37 | CGAGAGCAAUAUUACGCGCG | -2.65 ± 0.55 | 
38 | CGGAAGCAAUAUUACGAGGC | -2.08 ± 0.79 | -2.78 ± 0.54
39 | UUGCAGCAAUAUUACGAGCC |  | -3.83 ± 0.53
40 | GAGUAGCAAUAUUACGAAAG |  | -3.7 ± 0.6
41 | UCAUAGCAAUAUUACGAGUC | -2.3 ± 0.51 | -1.48 ± 0.56
42 | CUAGAGCAAUAUUACGGCCA | -1.6 ± 0.59 | 

Row | Sequence | self-splicing fitness (ln) (37 °C) | self-splicing fitness (ln) (30 °C)
43 | GUCGAGCAAUAUUACGAGAG | -3.91 ± 0.72 | -4.41 ± 0.72
44 | UGUCAGCAAUAUUACGCUUC |  | -3.51 ± 0.52
45 | AUAGAGCAAUAUUACGAGAG | -1.86 ± 0.52 | -3.61 ± 0.6
46 | UCGGAGCAAUAUUACGCCAU | -1.09 ± 0.92 | -1.78 ± 0.84
47 | CGCAAGCAAUAUUACGCCAC |  | -1.82 ± 0.53
48 | CUUUAGCAAUAUUACGUCAC |  | -4.04 ± 1.1
49 | GCGAAGCAAUAUUACGUUCG | -0.778 ± 0.82 | -4.25 ± 0.52
50 | CCGAAGCAAUAUUACGAGGA | -2.54 ± 0.21 | -4.32 ± 0.39
51 | GGUGAGCAAUAUUACGCGAG |  | -4.28 ± 0.6
52 | UUGGAGCAAUAUUACGAUUC |  | -4.36 ± 0.73
53 | GGUGAGCAAUAUUACGCCGU | -3.52 ± 0.73 | 
54 | CCUGAGCAAUAUUACGUAAC |  | -4.29 ± 1.1
55 | AAUAAGCAAUAUUACGCUGA | -1.63 ± 0.18 | -1.81 ± 0.17
56 | UCAUAGCAAUAUUACGUUAA |  | -3.75 ± 0.52
57 | AGAGAGCAAUAUUACGGGCA | -2.86 ± 0.75 | 
58 | GGUUAGCAAUAUUACGGCCC | -2.08 ± 1.1 | 
59 | GGUUAGCAAUAUUACGAAGA | -1.74 ± 0.69 | -1.68 ± 0.69
60 | CCGGAGCAAUAUUACGCUCC | -1.69 ± 1.2 | 
61 | UCAUAGCAAUAUUACGAUAC | -3.03 ± 0.6 | 

Single entries from the entries so far:
self-splicing fitness (ln) (30 °C), UCAUAGCAAUAUUACGUUAA reads -3.75 ± 0.52
self-splicing fitness (ln) (37 °C), GGUUAGCAAUAUUACGGCCC reads -2.08 ± 1.1
self-splicing fitness (ln) (37 °C), AGAGAGCAAUAUUACGGGCA reads -2.86 ± 0.75
self-splicing fitness (ln) (37 °C), GGUUAGCAAUAUUACGAAGA reads -1.74 ± 0.69
self-splicing fitness (ln) (30 °C), CCUGAGCAAUAUUACGUAAC reads -4.29 ± 1.1

— the supplement of paper PMC7877785
